In patent publication US20250075147A1, “FRAGRANCE AND FLAVOR COMPOSITIONS COMPRISING NEW FLAVOR AND FRAGRANCE INGREDIENTS” (priority 2023, published 2025):

Assays:
odor evaluation panel = test: Odor evaluation panel rating of odorants by Rate-All-That-Apply (RATA) method with 55-word odor lexicon, plus intensity and pleasantness; design: species or system human; conditions: for Fruity: mean panelist score for odor label fruity (RATA); for Spicy: mean panelist score for odor label spicy (RATA); for Sweet: mean panelist score for odor label sweet (RATA); for Pleasantness: mean panelist score for odor pleasantness; for Floral: mean panelist score for odor label floral (RATA)
[1] = Evaluation by trained and/or certified flavor or fragrance chemists or master perfumers; categorization by commercial prospect; conditions: for Rating: category of commercial prospect, (A) highest > (B) > (C) > (D) lowest, (E) requires further study; for Rating (category of commercial prospect): evaluation by trained flavor or fragrance chemists or master perfumers

Compound: C=CC(=O)OC1CCCCC1 [Compound 344, cyclohexyl prop-2-enoate]
- Fruity (odor evaluation panel): 0.875
- Spicy (odor evaluation panel): 0.344
- Sweet (odor evaluation panel): 1.375
- Pleasantness (odor evaluation panel): 4.994
- Rating [1]: (D)

Compound: N#CC1CC2C=CC1C2 (centres unmarked) [Compound 294, bicyclo[2.2.1]hept-5-ene-2-carbonitrile]
- Floral (odor evaluation panel): 0.583
- Fruity (odor evaluation panel): 0.75
- Spicy (odor evaluation panel): 0.056
- Sweet (odor evaluation panel): 0.861
- Rating [1]: (D)

Compound: CC1(C)C[C@@H]1C(N)=O [Compound 449, (1S)-2,2-dimethylcyclopropane-1-carboxamide]
- Floral (odor evaluation panel): 0.194
- Fruity (odor evaluation panel): 0.871
- Spicy (odor evaluation panel): 0
- Sweet (odor evaluation panel): 1.419
- Pleasantness (odor evaluation panel): 5.623
- Rating [1]: (D)

Compound: Cc1csc(C(=O)O)c1 [Compound 450, 4-methylthiophene-2-carboxylic acid]
- Floral (odor evaluation panel): 0
- Fruity (odor evaluation panel): 0
- Spicy (odor evaluation panel): 0.938
- Sweet (odor evaluation panel): 0.344
- Pleasantness (odor evaluation panel): 3.059
- Rating [1]: (D)

Compound: c1cnc2c(c1)CCC2 [Compound 225, 6,7-dihydro-5H-cyclopenta[b]pyridine]
- Floral (odor evaluation panel): 0
- Fruity (odor evaluation panel): 0.235
- Spicy (odor evaluation panel): 0.118
- Sweet (odor evaluation panel): 0.529
- Pleasantness (odor evaluation panel): 5.259
- Rating [1]: (D)

Compound: CC(C)(C)CC(=O)O [Compound 786, 3,3-dimethylbutanoic acid]
- Floral (odor evaluation panel): 0.059
- Fruity (odor evaluation panel): 1.353
- Spicy (odor evaluation panel): 0
- Sweet (odor evaluation panel): 0.912
- Pleasantness (odor evaluation panel): 4.409
- Rating (category of commercial prospect) [1]: (D)

Compound: O=Cc1cc2ccccc2s1 [Compound 445, 1-benzothiophene-2-carbaldehyde]
- Floral (odor evaluation panel): 0.694
- Fruity (odor evaluation panel): 2.472
- Spicy (odor evaluation panel): 0.361
- Sweet (odor evaluation panel): 1.694
- Rating [1]: (D)

Compound: CCOC(=O)COc1ccccc1OC [Compound 593, ethyl 2-(2-methoxyphenoxy)acetate]
- Floral (odor evaluation panel): 0.406
- Fruity (odor evaluation panel): 0.656
- Spicy (odor evaluation panel): 0.469
- Sweet (odor evaluation panel): 1.75
- Pleasantness (odor evaluation panel): 5.947
- Rating (category of commercial prospect) [1]: (B)

Compound: COC(=O)c1cc(C)on1 [Compound 140, methyl 5-methyl-1,2-oxazole-3-carboxylate]
- Floral (odor evaluation panel): 0
- Fruity (odor evaluation panel): 0.406
- Spicy (odor evaluation panel): 0.062
- Sweet (odor evaluation panel): 0.344
- Pleasantness (odor evaluation panel): 5.594
- Rating [1]: (D)

Compound: N#CCCCN1CCCC1 [Compound 944, 4-pyrrolidin-1-ylbutanenitrile]
- Floral (odor evaluation panel): 0.312
- Fruity (odor evaluation panel): 0
- Spicy (odor evaluation panel): 0.125
- Sweet (odor evaluation panel): 0
- Pleasantness (odor evaluation panel): 4.259
- Rating (category of commercial prospect) [1]: (D)

Compound: CN1CCCC(CO)C1 (centres unmarked) [Compound 316, (1-methylpiperidin-3-yl)methanol]
- Floral (odor evaluation panel): 0
- Fruity (odor evaluation panel): 0
- Spicy (odor evaluation panel): 0
- Sweet (odor evaluation panel): 0.412
- Pleasantness (odor evaluation panel): 5.871
- Rating [1]: (A)

Compound: CNC1CCN(Cc2ccccc2)C1 (centres unmarked) [Compound 784, 1-benzyl-N-methylpyrrolidin-3-amine]
- Floral (odor evaluation panel): 0.062
- Fruity (odor evaluation panel): 0.031
- Spicy (odor evaluation panel): 0.094
- Sweet (odor evaluation panel): 0.219
- Pleasantness (odor evaluation panel): 4.266
- Rating (category of commercial prospect) [1]: (C)

Compound: CC(C)(C)OC(=O)NC1CCCNC1 (centres unmarked) [Compound 760, tert-butyl N-piperidin-3-ylcarbamate]
- Floral (odor evaluation panel): 0
- Fruity (odor evaluation panel): 0
- Spicy (odor evaluation panel): 0
- Sweet (odor evaluation panel): 0
- Rating (category of commercial prospect) [1]: (B)

Compound: CC(C)Sc1ccccc1 [Compound 211, propan-2-ylsulfanylbenzene]
- Floral (odor evaluation panel): 1.25
- Fruity (odor evaluation panel): 0.125
- Spicy (odor evaluation panel): 0.156
- Sweet (odor evaluation panel): 0.844
- Pleasantness (odor evaluation panel): 4.553
- Rating [1]: (D)

Compound: O=C1CCN(Cc2ccccc2)C1 [Compound 558, 1-benzylpyrrolidin-3-one]
- Floral (odor evaluation panel): 0.3
- Fruity (odor evaluation panel): 0.8
- Spicy (odor evaluation panel): 0.133
- Sweet (odor evaluation panel): 0.633
- Pleasantness (odor evaluation panel): 5.69
- Rating [1]: (B)

Compound: O=C(O)c1cscn1 [Compound 490, 1,3-thiazole-4-carboxylic acid]
- Floral (odor evaluation panel): 0
- Fruity (odor evaluation panel): 0
- Spicy (odor evaluation panel): 0.281
- Sweet (odor evaluation panel): 0
- Pleasantness (odor evaluation panel): 1.919
- Rating [1]: (D)

Compound: CC(C)(C)NC=O [Compound 661, N-tert-butyl formamide]
- Floral (odor evaluation panel): 0.25
- Fruity (odor evaluation panel): 0.656
- Spicy (odor evaluation panel): 0.156
- Sweet (odor evaluation panel): 1
- Pleasantness (odor evaluation panel): 5.862
- Rating (category of commercial prospect) [1]: (D)

Compound: C=CC(=O)OCCCCCCCC [Compound 173, octyl prop-2-enoate]
- Floral (odor evaluation panel): 0.75
- Fruity (odor evaluation panel): 1.219
- Spicy (odor evaluation panel): 0.094
- Sweet (odor evaluation panel): 0.781
- Pleasantness (odor evaluation panel): 5.153
- Rating [1]: (D)

Compound: Oc1cc2ccccc2[nH]1 [Compound 743, 1H-indol-2-ol]
- Floral (odor evaluation panel): 0.438
- Fruity (odor evaluation panel): 0.344
- Spicy (odor evaluation panel): 0.094
- Pleasantness (odor evaluation panel): 4.609
- Rating (category of commercial prospect) [1]: (D)

Compound: Cc1ccc(C#N)n1C [Compound 402, 1,5-dimethylpyrrole-2-carbonitrile]
- Floral (odor evaluation panel): 0.645
- Fruity (odor evaluation panel): 0.581
- Spicy (odor evaluation panel): 0.71
- Sweet (odor evaluation panel): 2.194
- Pleasantness (odor evaluation panel): 6
- Rating [1]: (A)

Compound: OC1CCCCCCC1 [Compound 184, cyclooctanol]
- Floral (odor evaluation panel): 0.061
- Fruity (odor evaluation panel): 0.758
- Spicy (odor evaluation panel): 0
- Sweet (odor evaluation panel): 0.818
- Pleasantness (odor evaluation panel): 5.788
- Rating [1]: (C)

Compound: O=C(O)[C@@H]1CC=CCC1 [Compound 84, (1S)-cyclohex-3-ene-1-carboxylic acid]
- Floral (odor evaluation panel): 0.353
- Fruity (odor evaluation panel): 2.294
- Spicy (odor evaluation panel): 0.088
- Sweet (odor evaluation panel): 1.206
- Pleasantness (odor evaluation panel): 4.997
- Rating [1]: (D)

Compound: CC(C)(C)OCCO [Compound 544, 2-[(2-methylpropan-2-yl)oxy]ethanol]
- Floral (odor evaluation panel): 0.056
- Fruity (odor evaluation panel): 0.139
- Spicy (odor evaluation panel): 0.056
- Sweet (odor evaluation panel): 0.5
- Rating [1]: (A)

Compound: CCCCOC(=O)C1=CC(=O)CC(C)(C)O1 [Compound 901, butyl 2,2-dimethyl-4-oxo-3H-pyran-6-carboxylate]
- Floral (odor evaluation panel): 0
- Fruity (odor evaluation panel): 0.219
- Spicy (odor evaluation panel): 0.094
- Sweet (odor evaluation panel): 1.281
- Pleasantness (odor evaluation panel): 5.931
- Rating (category of commercial prospect) [1]: (B)

Compound: N#C/C=C/C1CCCC1 [Compound 680, (E)-3-cyclopentylprop-2-enenitrile]
- Floral (odor evaluation panel): 0.028
- Fruity (odor evaluation panel): 0.278
- Spicy (odor evaluation panel): 0.417
- Sweet (odor evaluation panel): 0.833
- Rating (category of commercial prospect) [1]: (B)

Compound: CC1OC(C)OC(C)OC(C)O1 (centres unmarked) [Compound 275, 2,4,6,8-tetramethyl-1,3,5,7-tetraoxocane]
- Floral (odor evaluation panel): 0.29
- Fruity (odor evaluation panel): 0.548
- Spicy (odor evaluation panel): 0
- Sweet (odor evaluation panel): 1.065
- Pleasantness (odor evaluation panel): 5.965
- Rating [1]: (A)

Compound: N#CNC1=NCCS1 [Compound 374, 4,5-dihydro-1,3-thiazol-2-ylcyanamide]
- Floral (odor evaluation panel): 0
- Fruity (odor evaluation panel): 0
- Spicy (odor evaluation panel): 0.219
- Sweet (odor evaluation panel): 0.062
- Pleasantness (odor evaluation panel): 2.794
- Rating [1]: (D)
